These results are taken from paper PMC6478692.

Construct, isoform or probe ends are uncertain for at least one entry.

In this data set the test system is SlREV (1-264) (Solanum lycopersicum). Kind of data set: EMSA. Conditions: no DTM, binding is inhibited dose-dependently by wild-type DTM (1, 2, 4 uL), less by DTM L8F and DTM L8F,L22A; LightShift EMSA kit binding buffer; 1 uL ivt SlREV; 20 min on ice with DTM, then 20 min at room temperature with DNA; 6% native PAGE; salt and pH not stated; protein translated in vitro; protein details: C-terminal HA (from cloning primer K-REV-HA-N-R); label: Cy5.

As to “CAGATCTGTAATGATTACGAGAAT (double strand) [HB9 (HB-9) duplex]”, the binding result was “binds”.
